For 28 compounds, TEAD-luciferase reporter activity results are on record in the supplement of paper PMC10735217.

Some of the results follow. Repeats in this data set agree poorly, so a single value says little.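 The human kidney-derived cells carry a stably integrated construct of eight TEAD-binding elements driving luciferase, read by luminescence in a drug-repurposing library screen. A compound counts as a hit when its signal is more than five robust Z scores above the plate mean.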

This assay deals with HEK293A TEAD-LUC reporter. The experiment in a line: TEAD-luciferase reporter activity (YAP activation), robust Z score vs plate; higher = stronger YAP/TEAD activation. The conditions noted are these: 24 h. On the technique in general: A reporter such as luciferase makes a cellular process visible.

On to `CNCC(O)c1ccc(O)c(O)c1` (centres undefined) [Epinephrine], for which, under “compound concentration: 2 uM”, the TEAD-luciferase reporter activity is inactive: 0.227.
As for `CC(=O)Oc1ccccc1C(=O)Nc1nccs1`, the TEAD-luciferase reporter activity reads like this: (compound concentration: 200 nM) inactive: 0.548; (compound concentration: 2 uM) inactive: -0.245; (compound concentration: 10 uM) inactive: -0.114.
Turning to `CCN(Cc1ccccc1)C(=O)Cn1c(=O)n(C)c2cnc(-c3ccccc3)nc21` [Emapunil], the TEAD-luciferase reporter activity by setting is: (compound concentration: 200 nM) inactive: -2.82; (compound concentration: 2 uM) inactive: -0.523; (compound concentration: 10 uM) inactive: -0.555.
For the compound `COc1cccc(C(O)C2CCN(CCc3ccc(F)cc3)CC2)c1OC` (centres undefined) [Volinanserin], the TEAD-luciferase reporter activity runs as follows: (compound concentration: 200 nM) inactive: 2.88; (compound concentration: 2 uM) inactive: -1.15; (compound concentration: 10 uM) inactive: 1.02.
Consider `O=C(C1CCCC1)N1CC2(CCN(Cc3ccc(Cl)cc3)CC2)Cc2ccccc21`, for which the TEAD-luciferase reporter activity by setting is: (compound concentration: 200 nM) inactive: -0.568; (compound concentration: 10 uM) inactive: 2.78.
`CC(C)(C)c1cc(/C=C2\SCNC2=O)cc(C(C)(C)C)c1O`: the TEAD-luciferase reporter activity by setting is: (compound concentration: 200 nM) inactive: -0.125; (compound concentration: 2 uM) inactive: -1.21; (compound concentration: 10 uM) inactive: -0.523.
For the compound `COCCn1nc(-c2ccc(OCCCC(F)(F)F)cc2)oc1=O`, the TEAD-luciferase reporter activity reads like this: (compound concentration: 200 nM) inactive: -0.1; (compound concentration: 2 uM) inactive: -1.08; (compound concentration: 10 uM) inactive: -0.51.
On to `O=C(Nc1ccc(C(=O)N2C[C@@H]3COCCN3Cc3ccccc32)c(Cl)c1)c1ccccc1-c1ccccc1`, for which the TEAD-luciferase reporter activity was inactive: -2.19 (compound concentration: 200 nM), inactive: -0.817 (compound concentration: 2 uM) and inactive: 1.55 (compound concentration: 10 uM).
As to `Cc1ccccn1` [2-Methylpyridine], the TEAD-luciferase reporter activity is inactive: -1.09 (compound concentration: 200 nM), inactive: -1.57 (compound concentration: 2 uM) and inactive: -1.32 (compound concentration: 10 uM).
As for `Nc1nc(OCc2ccccc2)c2nc[nH]c2n1` [O6-benzylguanine], the TEAD-luciferase reporter activity was inactive: 0.526 (compound concentration: 200 nM) and inactive: -0.599 (compound concentration: 10 uM).
Turning to `Nc1nc(OCc2ccccc2)c2nc[nH]c2n1` [O6 benzyl guanine], for the setting “compound concentration: 2 uM”, the TEAD-luciferase reporter activity was inactive: -1.74.
`CCN1CC(NC(=O)c2cc(Cl)c(N)cc2OC)CN1CC`: the TEAD-luciferase reporter activity was inactive: -1.48 (compound concentration: 200 nM), inactive: -1.49 (compound concentration: 2 uM) and inactive: -1.33 (compound concentration: 10 uM).
Turning to `C/C1=C\CC[C@@]2(C)O[C@@H]2[C@H]2OC(=O)[C@@H](CN(C)C)[C@@H]2CC1` [Dimethylaminoparthenolide], the TEAD-luciferase reporter activity is inactive: -0.527 (compound concentration: 200 nM), inactive: 0.856 (compound concentration: 2 uM) and inactive: -0.127 (compound concentration: 10 uM).
The like results for `Cn1c(Nc2ccc(C(F)(F)F)cc2)nc2cc(Oc3ccnc(-c4ncc(C(F)(F)F)[nH]4)c3)ccc21` were, in that order, inactive: -1.7, inactive: -1.55 and inactive: 2.34.
As to `O=c1c2ccccc2nnn1N1CCOCC1`, the TEAD-luciferase reporter activity by setting is: (compound concentration: 200 nM) inactive: -1.23; (compound concentration: 2 uM) inactive: -1.58; (compound concentration: 10 uM) inactive: -1.02.
`CN1CCN(CCCN2c3ccccc3Sc3ccc(Cl)cc32)CC1` [prochlorperazine, Alexza]: the TEAD-luciferase reporter activity (compound concentration: 2 uM) is inactive: -0.583.
In the case of `CN1CCN(CCCN2c3ccccc3Sc3ccc(Cl)cc32)CC1`, the TEAD-luciferase reporter activity is, setting by setting: (compound concentration: 200 nM) inactive: 4.56; (compound concentration: 10 uM) inactive: -0.93.
As to `COc1cc2c(cc1OC)CN(CCc1ccc(NC(=O)c3cc(OC)c(OC)cc3NC(=O)c3cnc4ccccc4c3)cc1)CC2` [tariquidar], the TEAD-luciferase reporter activity runs as follows: (compound concentration: 200 nM) inactive: -0.859; (compound concentration: 2 uM) inactive: -0.89; (compound concentration: 10 uM) inactive: 0.281.
Regarding `COc1c(/C=C/c2ccc(NS(C)(=O)=O)cc2)cc(-n2ccc(=O)[nH]c2=O)cc1C(C)(C)C`, the TEAD-luciferase reporter activity was inactive: 0.788 (compound concentration: 200 nM), inactive: -0.47 (compound concentration: 2 uM) and inactive: -0.907 (compound concentration: 10 uM).
The like results for `CCOCCn1nc(CC)c2nc(N3CCC(C(=O)O)CC3)nc(Nc3cc(C)ccn3)c21` were, in that order, inactive: -0.735, inactive: -0.618 and inactive: -1.15.
With `CC(=C\c1ccccc1)/C=C1/SC(=S)N(CC(=O)O)C1=O` [diepalrestat choline], the TEAD-luciferase reporter activity is inactive: -1.19 (compound concentration: 200 nM), inactive: -2.3 (compound concentration: 2 uM) and inactive: -0.992 (compound concentration: 10 uM).
On to `N#Cc1c(N)nc(N)nc1N[C@H](c1nc2c(F)ccc(Cl)c2c(=O)n1-c1cccnc1)C1CC1`, for which the TEAD-luciferase reporter activity was inactive: -1.59 (compound concentration: 200 nM), inactive: -0.764 (compound concentration: 2 uM) and inactive: -1.23 (compound concentration: 10 uM).
Take `Nc1nc(O)c2c(CCc3ccc(C(=O)NC(CCC(=O)O)C(=O)O)cc3)c[nH]c2n1` (centres undefined) [pemetrexed disodium]: the TEAD-luciferase reporter activity is inactive: -1.09 (compound concentration: 200 nM), inactive: 1.09 (compound concentration: 2 uM) and inactive: -0.255 (compound concentration: 10 uM).
On the same counts, the results for `Cc1c(F)c(N2CCNC(C)C2)cc2c1c(=O)c(C(=O)O)cn2C1CC1` (centres undefined) [grepafloxacin] are inactive: -1.34, inactive: 0.519 and inactive: 0.127.
Consider `CC12C=CC(=O)C=C1CCC1C2C(O)CC2(C)C1CC[C@]2(O)C(=O)COC(=O)CCC(=O)O` (some centres undefined) [Prednisolone Sodium Succinate], for which the TEAD-luciferase reporter activity by setting is: (compound concentration: 200 nM) inactive: 2.8; (compound concentration: 2 uM) inactive: -0.841; (compound concentration: 10 uM) inactive: 0.499.
Regarding `CC(=O)Nc1ccc(C(=O)N2CCN(c3ccc(C=O)cc3)C(=O)C2)cc1`, the TEAD-luciferase reporter activity is, setting by setting: (compound concentration: 200 nM) inactive: -0.452; (compound concentration: 10 uM) active: 5.97.
In the case of `Nc1nc2c(cnn2CCN2CCN(c3ccc(F)cc3F)CC2)c2nc(-c3ccco3)nn12`, the TEAD-luciferase reporter activity is, setting by setting: (compound concentration: 200 nM) inactive: -0.0506; (compound concentration: 2 uM) inactive: -0.781; (compound concentration: 10 uM) inactive: -1.36.
`Cc1cc(S(=O)(=O)O)c2c(C)ccc(C(C)C)cc1-2` [azulene sodium sulfonate]: the TEAD-luciferase reporter activity was inactive: 0.385 (compound concentration: 200 nM), inactive: 0.878 (compound concentration: 2 uM) and inactive: 2.2 (compound concentration: 10 uM).
